In article PMC4924737:
These are yes or no findings as the source states them, for the method shown. Binding seen in cells or lysates may run through a third protein. For some of these results: Binding can be weak; no strength is given. For some of these results: Sequences can lack the tags named with a protein.

Sequences of proteins named here, by UniProt entry; tags and fusion partners are left off. A change or cut given only in a name is not applied to a line headed by its entry. A line that says so, or that is headed by a name, gives the form on record, which may keep a tag or linker.
Wild-type MST3-HA (Q9Y6E0, form named): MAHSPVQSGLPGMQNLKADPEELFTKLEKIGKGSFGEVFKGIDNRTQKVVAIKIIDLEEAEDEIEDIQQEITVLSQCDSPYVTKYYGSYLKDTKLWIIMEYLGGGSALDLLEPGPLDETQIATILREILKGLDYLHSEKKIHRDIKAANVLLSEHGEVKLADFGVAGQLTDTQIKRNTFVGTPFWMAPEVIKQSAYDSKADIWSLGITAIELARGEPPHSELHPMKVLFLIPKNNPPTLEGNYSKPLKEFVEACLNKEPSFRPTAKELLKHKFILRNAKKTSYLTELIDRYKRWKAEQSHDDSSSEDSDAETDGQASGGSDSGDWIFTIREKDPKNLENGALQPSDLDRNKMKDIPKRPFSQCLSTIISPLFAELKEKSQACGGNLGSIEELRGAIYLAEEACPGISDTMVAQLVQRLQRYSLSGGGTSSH

B1: Wild-type VAV2-myc (protein, UniProt P52735 1-878)
chain: MEQWRQCGRWLIDCKVLPPNHRVVWPSAVVFDLAQALRDGVLLCQLLHNLSPGSIDLKDINFRPQMSQFLCLKNIRTFLKVCHDKFGLRNSELFDPFDLFDVRDFGKVISAVSRLSLHSIAQNKGIRPFPSEETTENDDDVYRSLEELADEHDLGEDIYDCVPCEDGGDDIYEDIIKVEVQQPMIRYMQKMGMTEDDKRNCCLLEIQETEAKYYRTLEDIEKNYMSPLRLVLSPADMAAVFINLEDLIKVHHSFLRAIDVSVMVGGSTLAKVFLDFKERLLIYGEYCSHMEHAQNTLNQLLASREDFRQKVEECTLKVQDGKFKLQDLLVVPMQRVLKYHLLLKELLSHSAERPERQQLKEALEAMQDLAMYINEVKRDKETLRKISEFQSSIENLQVKLEEFGRPKIDGELKVRSIVNHTKQDRYLFLFDKVVIVCKRKGYSYELKEIIELLFHKMTDDPMNNKDVKKSHGKMWSYGFYLIHLQGKQGFQFFCKTEDMKRKWMEQFEMAMSNIKPDKANANHHSFQMYTFDKTTNCKACKMFLRGTFYQGYMCTKCGVGAHKECLEVIPPCKFTSPADLDASGAGPGPKMVAMQNYHGNPAPPGKPVLTFQTGDVLELLRGDPESPWWEGRLVQTRKSGYFPSSSVKPCPVDGRPPISRPPSREIDYTAYPWFAGNMERQQTDNLLKSHASGTYLIRERPAEAERFAISIKFNDEVKHIKVVEKDNWIHITEAKKFDSLLELVEYYQCHSLKESFKQLDTTLKYPYKSRERSASRASSRSPASCASYNFSFLSPQGLSFASQGPSAPFWSVFTPRVIGTAVARYNFAARDMRELSLREGDVVRIYSRIGGDQGWWKGETNGRIGWFPSTYVEEEGIQ

What was measured:
Wild-type MST3-HA = Wild-type MST3-HA (UniProt Q9Y6E0); test: co-IP; HEK293 cells co-transfected with the two tagged proteins; Triton X-100 lysis buffer (50 mM Tris-HCl pH 7.8, 150 mM NaCl, 1% Triton X-100); 0.5 mg total protein, 1 ug anti-myc or anti-HA antibody overnight at 4°C, protein G-Sepharose; immunoblot with anti-myc and anti-HA
[1] = biological target: ΔP-MST3-HA (MST3 with deletion of the proline-rich domain) (UniProt Q9Y6E0); test: as above

Row | Molecule | binding (Wild-type MST3-HA) | binding [1]
1 | ΔN-184-VAV2-myc (from UniProt P52735) (domain or fragment) | binds | 
2 | ΔN-520-VAV2-myc (from UniProt P52735) (domain or fragment) | binds | 
3 | ΔN-655-VAV2-myc (from UniProt P52735) (domain or fragment) | binds | 
4 | B1 |  | no binding
